Experimental data published in the supplement of paper PMC12067093, “Discovery and optimisation of a covalent ligand for TRIM25 and its application to targeted protein ubiquitination” (Chemical Science, 2025).
Some of the results follow.

The chains behind the UniProt entries cited, without tags or fusion partners. Where a name states a change or a piece, a line headed by the entry shows the natural chain unless it says otherwise.
UniProt Q99704: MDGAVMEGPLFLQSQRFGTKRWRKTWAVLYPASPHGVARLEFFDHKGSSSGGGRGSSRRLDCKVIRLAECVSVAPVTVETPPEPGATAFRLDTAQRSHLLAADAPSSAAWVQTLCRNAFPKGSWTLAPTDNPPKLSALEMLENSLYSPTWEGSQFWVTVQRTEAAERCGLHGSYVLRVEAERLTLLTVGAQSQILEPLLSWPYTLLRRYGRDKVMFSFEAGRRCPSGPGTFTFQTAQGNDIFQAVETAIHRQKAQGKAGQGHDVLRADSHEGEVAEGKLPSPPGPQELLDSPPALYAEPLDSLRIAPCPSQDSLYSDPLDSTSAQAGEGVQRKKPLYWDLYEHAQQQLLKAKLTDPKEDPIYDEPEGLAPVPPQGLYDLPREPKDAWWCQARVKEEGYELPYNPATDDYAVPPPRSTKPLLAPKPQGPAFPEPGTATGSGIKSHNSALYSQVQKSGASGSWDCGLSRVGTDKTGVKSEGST
UniProt Q14204, whole entry, looked up: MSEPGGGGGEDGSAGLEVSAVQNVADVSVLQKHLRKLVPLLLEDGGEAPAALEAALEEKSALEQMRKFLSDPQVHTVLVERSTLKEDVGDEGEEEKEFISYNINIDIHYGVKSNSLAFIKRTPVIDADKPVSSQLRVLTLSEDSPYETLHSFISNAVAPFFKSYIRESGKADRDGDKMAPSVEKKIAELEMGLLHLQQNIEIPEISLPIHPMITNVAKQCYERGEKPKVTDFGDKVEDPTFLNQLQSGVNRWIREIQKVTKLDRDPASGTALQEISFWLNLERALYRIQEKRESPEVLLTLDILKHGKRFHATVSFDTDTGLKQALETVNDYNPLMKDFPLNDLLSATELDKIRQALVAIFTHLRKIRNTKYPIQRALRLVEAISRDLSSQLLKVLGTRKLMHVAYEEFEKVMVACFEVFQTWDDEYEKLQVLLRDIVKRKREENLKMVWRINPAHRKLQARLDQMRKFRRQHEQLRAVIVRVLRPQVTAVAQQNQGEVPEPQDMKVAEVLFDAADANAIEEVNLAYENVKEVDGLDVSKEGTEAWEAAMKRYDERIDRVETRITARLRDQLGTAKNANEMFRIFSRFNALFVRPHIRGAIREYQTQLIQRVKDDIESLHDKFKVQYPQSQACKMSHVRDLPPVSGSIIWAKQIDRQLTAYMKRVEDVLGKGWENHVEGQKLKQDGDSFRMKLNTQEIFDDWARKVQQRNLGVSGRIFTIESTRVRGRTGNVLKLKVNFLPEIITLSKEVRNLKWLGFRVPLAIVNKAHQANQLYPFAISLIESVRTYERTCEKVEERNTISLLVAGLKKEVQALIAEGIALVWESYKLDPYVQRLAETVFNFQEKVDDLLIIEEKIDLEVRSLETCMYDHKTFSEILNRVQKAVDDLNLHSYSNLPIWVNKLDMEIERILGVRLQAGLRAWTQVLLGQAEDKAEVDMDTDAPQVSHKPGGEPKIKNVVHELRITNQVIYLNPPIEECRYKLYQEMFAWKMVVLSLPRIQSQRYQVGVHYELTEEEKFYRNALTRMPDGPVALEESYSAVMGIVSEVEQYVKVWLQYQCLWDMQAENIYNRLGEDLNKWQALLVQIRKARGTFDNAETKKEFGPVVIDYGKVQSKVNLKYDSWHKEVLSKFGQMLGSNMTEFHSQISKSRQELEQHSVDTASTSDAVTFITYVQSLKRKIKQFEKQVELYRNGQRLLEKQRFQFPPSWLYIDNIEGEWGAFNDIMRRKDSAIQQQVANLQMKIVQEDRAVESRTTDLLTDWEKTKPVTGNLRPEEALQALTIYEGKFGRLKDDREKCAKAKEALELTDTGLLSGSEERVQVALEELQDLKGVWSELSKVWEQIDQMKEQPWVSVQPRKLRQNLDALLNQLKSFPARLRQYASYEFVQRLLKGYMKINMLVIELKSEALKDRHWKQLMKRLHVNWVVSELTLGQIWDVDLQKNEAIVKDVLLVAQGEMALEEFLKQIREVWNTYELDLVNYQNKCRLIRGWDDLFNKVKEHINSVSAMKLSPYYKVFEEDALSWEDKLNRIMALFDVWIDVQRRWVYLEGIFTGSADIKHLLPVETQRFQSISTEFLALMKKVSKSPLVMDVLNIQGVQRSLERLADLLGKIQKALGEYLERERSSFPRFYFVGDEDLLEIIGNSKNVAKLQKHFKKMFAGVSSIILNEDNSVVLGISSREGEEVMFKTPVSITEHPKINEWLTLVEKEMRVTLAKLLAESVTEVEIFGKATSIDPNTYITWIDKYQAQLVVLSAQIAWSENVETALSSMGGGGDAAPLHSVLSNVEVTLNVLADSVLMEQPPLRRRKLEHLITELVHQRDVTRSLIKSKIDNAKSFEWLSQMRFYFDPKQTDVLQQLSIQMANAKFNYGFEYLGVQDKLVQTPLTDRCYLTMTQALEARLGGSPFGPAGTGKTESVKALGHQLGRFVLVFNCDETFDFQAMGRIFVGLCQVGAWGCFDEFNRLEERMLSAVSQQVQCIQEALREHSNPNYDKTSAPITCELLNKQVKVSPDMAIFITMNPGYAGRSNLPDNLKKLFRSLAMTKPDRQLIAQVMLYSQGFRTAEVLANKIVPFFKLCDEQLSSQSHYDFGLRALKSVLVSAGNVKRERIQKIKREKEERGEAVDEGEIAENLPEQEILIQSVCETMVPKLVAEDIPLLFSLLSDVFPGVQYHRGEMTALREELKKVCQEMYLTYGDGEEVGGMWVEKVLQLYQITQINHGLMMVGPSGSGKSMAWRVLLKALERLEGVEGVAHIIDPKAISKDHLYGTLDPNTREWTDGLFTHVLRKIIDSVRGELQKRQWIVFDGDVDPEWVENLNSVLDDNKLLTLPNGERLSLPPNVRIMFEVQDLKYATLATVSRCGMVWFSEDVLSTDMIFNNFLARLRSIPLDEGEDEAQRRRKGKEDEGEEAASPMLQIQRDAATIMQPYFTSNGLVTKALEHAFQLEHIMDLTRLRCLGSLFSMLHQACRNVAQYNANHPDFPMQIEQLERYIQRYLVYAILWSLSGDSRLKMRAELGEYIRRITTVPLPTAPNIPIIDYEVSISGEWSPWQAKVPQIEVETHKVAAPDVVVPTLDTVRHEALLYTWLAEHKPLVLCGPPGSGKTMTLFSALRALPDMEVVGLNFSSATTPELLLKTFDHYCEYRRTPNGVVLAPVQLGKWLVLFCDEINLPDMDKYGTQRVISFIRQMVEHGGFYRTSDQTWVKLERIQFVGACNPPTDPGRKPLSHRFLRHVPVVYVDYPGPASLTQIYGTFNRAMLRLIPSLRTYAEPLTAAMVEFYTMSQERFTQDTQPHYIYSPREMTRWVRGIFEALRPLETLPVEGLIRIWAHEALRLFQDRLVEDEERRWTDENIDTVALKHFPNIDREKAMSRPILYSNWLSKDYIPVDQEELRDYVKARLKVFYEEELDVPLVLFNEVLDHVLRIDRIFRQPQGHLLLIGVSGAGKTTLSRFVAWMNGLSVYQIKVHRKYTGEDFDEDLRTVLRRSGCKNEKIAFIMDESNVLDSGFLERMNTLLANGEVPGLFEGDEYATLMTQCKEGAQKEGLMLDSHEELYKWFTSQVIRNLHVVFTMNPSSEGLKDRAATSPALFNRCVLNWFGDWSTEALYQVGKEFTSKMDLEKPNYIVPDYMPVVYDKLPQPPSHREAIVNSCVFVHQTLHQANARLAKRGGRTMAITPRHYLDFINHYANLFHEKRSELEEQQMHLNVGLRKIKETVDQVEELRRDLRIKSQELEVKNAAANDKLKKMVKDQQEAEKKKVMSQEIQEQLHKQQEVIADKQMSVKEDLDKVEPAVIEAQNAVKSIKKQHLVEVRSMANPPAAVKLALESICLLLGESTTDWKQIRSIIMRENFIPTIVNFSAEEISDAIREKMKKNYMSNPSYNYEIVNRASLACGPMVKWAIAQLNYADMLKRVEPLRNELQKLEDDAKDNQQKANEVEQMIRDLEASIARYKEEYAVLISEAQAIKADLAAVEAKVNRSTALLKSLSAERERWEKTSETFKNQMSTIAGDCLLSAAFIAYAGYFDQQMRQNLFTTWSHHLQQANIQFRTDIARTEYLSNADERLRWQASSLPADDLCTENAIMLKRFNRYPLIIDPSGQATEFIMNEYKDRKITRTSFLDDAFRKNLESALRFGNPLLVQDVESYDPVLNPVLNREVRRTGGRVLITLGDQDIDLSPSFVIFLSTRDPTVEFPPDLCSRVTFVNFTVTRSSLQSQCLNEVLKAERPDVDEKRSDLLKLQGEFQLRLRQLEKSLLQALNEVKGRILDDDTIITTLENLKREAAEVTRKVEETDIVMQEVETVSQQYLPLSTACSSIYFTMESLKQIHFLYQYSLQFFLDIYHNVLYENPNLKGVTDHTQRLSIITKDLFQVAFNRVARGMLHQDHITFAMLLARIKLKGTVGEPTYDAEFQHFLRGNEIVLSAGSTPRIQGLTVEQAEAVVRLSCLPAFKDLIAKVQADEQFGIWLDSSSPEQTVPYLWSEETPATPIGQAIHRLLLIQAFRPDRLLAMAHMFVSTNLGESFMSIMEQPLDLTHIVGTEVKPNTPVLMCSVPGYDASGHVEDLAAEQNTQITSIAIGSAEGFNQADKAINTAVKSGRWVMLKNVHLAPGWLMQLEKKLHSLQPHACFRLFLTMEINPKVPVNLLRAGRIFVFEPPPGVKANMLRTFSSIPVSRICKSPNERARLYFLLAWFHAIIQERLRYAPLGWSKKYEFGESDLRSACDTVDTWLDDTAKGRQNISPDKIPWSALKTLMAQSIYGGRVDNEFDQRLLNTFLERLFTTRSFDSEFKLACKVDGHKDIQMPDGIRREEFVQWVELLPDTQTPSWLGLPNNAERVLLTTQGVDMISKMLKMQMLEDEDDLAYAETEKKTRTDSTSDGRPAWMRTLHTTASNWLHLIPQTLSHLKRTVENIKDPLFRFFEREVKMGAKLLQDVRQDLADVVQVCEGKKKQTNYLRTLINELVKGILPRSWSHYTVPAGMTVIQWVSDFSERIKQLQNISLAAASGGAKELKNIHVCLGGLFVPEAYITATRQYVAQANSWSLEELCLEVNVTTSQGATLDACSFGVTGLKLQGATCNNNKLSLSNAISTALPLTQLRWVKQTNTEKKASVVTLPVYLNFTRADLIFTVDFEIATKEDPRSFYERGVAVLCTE
UniProt P60981: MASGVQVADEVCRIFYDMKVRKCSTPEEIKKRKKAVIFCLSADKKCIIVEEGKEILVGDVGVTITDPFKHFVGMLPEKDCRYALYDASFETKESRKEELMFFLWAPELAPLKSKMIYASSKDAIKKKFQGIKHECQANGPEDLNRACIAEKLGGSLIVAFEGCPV
UniProt Q86TI2: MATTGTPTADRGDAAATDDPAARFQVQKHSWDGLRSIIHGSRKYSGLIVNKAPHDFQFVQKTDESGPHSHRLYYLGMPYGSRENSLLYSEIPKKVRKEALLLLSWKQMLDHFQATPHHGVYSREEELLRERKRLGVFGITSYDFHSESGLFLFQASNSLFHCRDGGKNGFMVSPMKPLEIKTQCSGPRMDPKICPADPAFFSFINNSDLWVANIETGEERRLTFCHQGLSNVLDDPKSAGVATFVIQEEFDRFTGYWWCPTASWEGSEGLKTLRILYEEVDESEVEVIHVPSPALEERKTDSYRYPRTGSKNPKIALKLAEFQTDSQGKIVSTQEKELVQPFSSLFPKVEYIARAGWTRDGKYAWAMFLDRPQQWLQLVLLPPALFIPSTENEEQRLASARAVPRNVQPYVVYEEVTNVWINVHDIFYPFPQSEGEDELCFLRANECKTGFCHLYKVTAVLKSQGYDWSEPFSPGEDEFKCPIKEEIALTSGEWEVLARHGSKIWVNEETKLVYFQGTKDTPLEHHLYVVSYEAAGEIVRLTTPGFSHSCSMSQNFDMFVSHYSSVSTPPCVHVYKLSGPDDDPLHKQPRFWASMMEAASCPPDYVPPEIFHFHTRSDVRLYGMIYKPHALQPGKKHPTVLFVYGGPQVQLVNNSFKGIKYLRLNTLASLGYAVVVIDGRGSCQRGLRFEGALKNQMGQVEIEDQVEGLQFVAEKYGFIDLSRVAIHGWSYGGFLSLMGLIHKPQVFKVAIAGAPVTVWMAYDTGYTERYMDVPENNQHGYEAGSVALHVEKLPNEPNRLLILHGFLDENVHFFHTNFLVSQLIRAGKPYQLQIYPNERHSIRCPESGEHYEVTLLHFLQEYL
UniProt Q13011: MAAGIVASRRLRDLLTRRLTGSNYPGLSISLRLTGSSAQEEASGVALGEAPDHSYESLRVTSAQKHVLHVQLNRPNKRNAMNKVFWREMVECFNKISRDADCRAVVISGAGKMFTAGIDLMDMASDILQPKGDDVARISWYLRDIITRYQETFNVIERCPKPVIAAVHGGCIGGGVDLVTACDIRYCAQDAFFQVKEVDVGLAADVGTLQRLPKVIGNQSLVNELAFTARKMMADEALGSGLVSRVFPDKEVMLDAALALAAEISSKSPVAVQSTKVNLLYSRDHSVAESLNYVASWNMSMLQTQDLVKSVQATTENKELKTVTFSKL

Compound: Cc1cc(ccc1-c1ccccc1)C(=O)N1CCCN(CC1)C(=O)CCl [compound 10]
Experiment: probe-labelled cysteine peptide fold change vs DMSO (competition) (log2 fold change); higher = less target engagement (more negative = stronger competition)
Details: THP-1, incubation time: 4 h
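Further: competitive profiling in live THP-1 cells: cysteine peptides tagged with an iodoacetamide desthiobiotin (IA-DTB) probe, intensity after compound treatment relative to DMSO-treated cells.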

Row | Target | probe-labelled cysteine peptide fold change (10 µM) | probe-labelled cysteine peptide fold change (50 µM)
1 | DOK1_Q99704_389_DAWWCQAR (UniProt Q99704) | -0.138 | -0.519
2 | DYNC1H1_Q14204_4570_LQGATCNNNK (UniProt Q14204) | -0.0564 | -0.139
3 | DOK2_O60496_132_QSRPCMEENELYSSAVTVGPHK (UniProt O60496) | -0.225 | -0.254
4 | DOK3_Q7L591_144_LADCVSVLPADGESCPR (UniProt Q7L591) | 0.15 | -0.157
5 | DSTN_P60981_39_AVIFCLSADKK (UniProt P60981) | -0.0188 | -0.319
6 | DPP9_Q86TI2_225_RLTFCHQGLSNVLDDPK (UniProt Q86TI2) | 0.249 | -0.147
7 | DUSP23_Q9BVJ7_108_TGTMLACYLVK (UniProt Q9BVJ7) | 0.275 | -0.205
8 | DOCK11_Q5JSL3_1074_FEFLQTICNHEHYIPLNLPMAFAK (UniProt Q5JSL3) | 0.334 | 0.303
9 | DYNC1H1_Q14204_4438_QDLADVVQVCEGKK (UniProt Q14204) | 0.0575 | 0.0503
10 | DPYSL2_Q16555_132_SCCDYSLHVDISEWHK (UniProt Q16555) | 0.249 | -0.196
11 | DPYSL2_Q16555_248_AITIANQTNCPLYITK (UniProt Q16555) | 0.0767 | 0.199
12 | DNPEP_Q9ULA0_447_EMACTTGVLQTLTLFK (UniProt Q9ULA0) | 0.0598 | 0.144
13 | DTWD2_Q8NBA8_252_NNYIQETLLRPLQALCSFQLQHGAQIR (UniProt Q8NBA8) | -0.431 | -0.358
14 | DOCK6_Q96HP0_510_IDISPAPENPHFCLSPELLHIK (UniProt Q96HP0) | -0.161 | 0.192
15 | ECH1_Q13011_171_PVIAAVHGGCIGGGVDLVTACDIR (UniProt Q13011) | 0.276 | 0.243
16 | ECH1_Q13011_159_CPKPVIAAVHGGCIGGGVDLVTACDIR (UniProt Q13011) | -0.00276 | -0.154
17 | DOCK8_Q8NF50_197_GPVTACDFDLR (UniProt Q8NF50) | -0.286 | -0.313
18 | DYNC1I2_Q13409_331_TTPEYVFHCQSAVMSATFAK (UniProt Q13409) | 0.091 | 0.418

Complete entries as entered above. Values in the order: probe-labelled cysteine peptide fold change (10 µM)	probe-labelled cysteine peptide fold change (50 µM)
DPP9_Q86TI2_225_RLTFCHQGLSNVLDDPK (UniProt Q86TI2) is listed as 0.249	-0.147
DPYSL2_Q16555_132_SCCDYSLHVDISEWHK (UniProt Q16555) is listed as 0.249	-0.196

Next part.

Row | Target | probe-labelled cysteine peptide fold change (10 µM) | probe-labelled cysteine peptide fold change (50 µM)
19 | DRAP1_Q14919_73_QCIELEQQFDFLK (UniProt Q14919) | 0.0445 | -0.0103
20 | EAPP_Q56P03_210_AMFVMNCSINK (UniProt Q56P03) | 0.184 | 0.185
21 | DPP8_Q6V1X1_221_LCPADPDWIAFIHSNDIWISNIVTR (UniProt Q6V1X1) | -0.0227 | -0.032
22 | DOCK11_Q5JSL3_492_VLQGNITHCAEPYIK (UniProt Q5JSL3) | -0.173 | -0.0184
23 | DYNC1LI1_Q9Y6G9_247_CDAISVLEK (UniProt Q9Y6G9) | 0.288 | -0.0168
24 | DSN1_Q9H410_65_KGGNCDLSHQER (UniProt Q9H410) | -0.0148 | -0.213
25 | DOCK10_Q96BY6_936_CHEEQLDHSVQSYIK (UniProt Q96BY6) | 0.1 | 0.0366
26 | DOCK8_Q8NF50_391_LQAESFCQR (UniProt Q8NF50) | -0.117 | 0.1
27 | DYNC1H1_Q14204_2466_CLGSLFSMLHQACR (UniProt Q14204) | 0.0143 | 0.192
28 | DOT1L_Q8TEK3_1397_EAGEGGLPLCGPTDK (UniProt Q8TEK3) | -0.195 | -0.0739
29 | DXO_O77932_108_DEEVQERLDHLLCWLLEHR (UniProt O77932) | 0.222 | 0.183
30 | DOK1_Q99704_224_CPSGPGTFTFQTAQGNDIFQAVETAIHR (UniProt Q99704) | -0.0751 | 0.0905
31 | DPH5_Q9H2P9_219_IRGEEPAVTEETLCVGLAR (UniProt Q9H2P9) | -0.0203 | -0.00995
32 | DPYSL2_Q16555_504_GLYDGPVCEVSVTPK (UniProt Q16555) | -0.0101 | -0.0861
33 | DUS3L_Q96G46_282_TCGPLTDEDVVR (UniProt Q96G46) | -0.375 | -0.156
34 | DPP9_Q86TI2_225_LTFCHQGLSNVLDDPK (UniProt Q86TI2) | 0.0281 | 0.101
35 | DPF2_Q92785_295_TGQPEELVSCSDCGR (UniProt Q92785) | 0.289 | 0.491
